Assay results as given in PMC7527559.
These are yes or no findings as the source states them, for the method shown. In cells and extracts the contact can be indirect. Some binding calls cover weakened binding; strength is not graded here. Where a sequence is shown, tags or fusion partners need not be part of it.

Amino acid sequences for entries named in this document (tags omitted). A change or cut given only in a name is not applied to a line headed by its entry.
UniProt P0A7Z4: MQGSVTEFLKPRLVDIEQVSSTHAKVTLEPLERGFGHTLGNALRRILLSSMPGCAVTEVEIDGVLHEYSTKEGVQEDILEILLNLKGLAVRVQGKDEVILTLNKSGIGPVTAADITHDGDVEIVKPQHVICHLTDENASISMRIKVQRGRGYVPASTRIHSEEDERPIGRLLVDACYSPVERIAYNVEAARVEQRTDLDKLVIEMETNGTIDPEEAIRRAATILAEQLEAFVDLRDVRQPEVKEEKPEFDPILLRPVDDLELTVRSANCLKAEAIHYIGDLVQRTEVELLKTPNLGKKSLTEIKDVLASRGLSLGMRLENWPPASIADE

Target: T1, Wt GreA protein with a C-terminal His-tag (GreA-His) (E. coli) (UniProt P0A6W5)
T1 sequence: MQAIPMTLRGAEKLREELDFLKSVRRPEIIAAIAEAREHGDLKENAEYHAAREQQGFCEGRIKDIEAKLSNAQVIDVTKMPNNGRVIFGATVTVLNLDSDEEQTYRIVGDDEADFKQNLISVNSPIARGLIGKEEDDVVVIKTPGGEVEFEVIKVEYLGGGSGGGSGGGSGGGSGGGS
Assay: pull-down; GreA-His held on Dynabeads His-Tag magnetic beads from whole cell extracts of E. coli CF14758 (ΔgreA ΔgreB); co-purified RNAP estimated by anti-RpoA Western blot normalised to GreA-His; untagged competitor GreA (Wt, S121P or E59G) induced with increasing IPTG for 30 min; 50 mM sodium-phosphate pH 8.0, 300 mM NaCl, 0.01% Tween-20, 5 min at room temperature

binding: binds
Substance: E. coli RNA polymerase (RNAP) (from UniProt P0A7Z4 1-329; P0A8V2 1-1342; P0A8T7 1-1407; P0A800 1-91) (complex)
